Data as given in PubChem BioAssay AID1259254 (NCATS, 2017).
Screen: 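Finding genes that stop cells copying their DNA twice in one cycle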 (primary screen). Cells: human HCT116 colorectal cancer cells. Reagent: single siRNA against human genes. Time to read-out: 3 days. Read-out: 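Nuclei stained with Hoechst and imaged; cell-cycle phase assigned by DNA content; G2 share scaled per plate, non-targeting siRNA 0%, GMNN siRNA 100%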. Reading the numbers: G2 robust z-score and G2 cells, % of GMNN control: higher = more G2 cells, more excess DNA replication. Active means: 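Active siRNAs have a G2 robust z of 5 or more median absolute deviations over the median, which in these data means about 38% or higher of GMNN control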.
The deposit covers about 59,000 reagents; below is a random part of them. In the full data, about 1,550 (2.6%) were called active. 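G2 share is only a proxy for re-replication; each gene was hit by three separate siRNAs, and active genes were retested.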 Reagents against one gene are numbered here. Not all columns of the deposit are shown. Not given: the amount of reagent.

USP30 (ubiquitin specific peptidase 30) #1 gave G2 robust z-score 1.11; G2 cells, % of GMNN control 10.7; inactive.
USP30 (ubiquitin specific peptidase 30) #2 scored G2 robust z-score 0.52; G2 cells, % of GMNN control 6.63; inactive.
Silencing of USP30 (ubiquitin specific peptidase 30) #3 gave: G2 robust z-score -0.491; G2 cells, % of GMNN control -0.487; inactive.
RAB27A (RAB27A, member RAS oncogene family) #1 gave G2 robust z-score 0.98; G2 cells, % of GMNN control 9.86; inactive.
For RAB27A (RAB27A, member RAS oncogene family) #2, the entry reads G2 robust z-score -0.509; G2 cells, % of GMNN control -0.611; inactive.
Depletion of RAB27A (RAB27A, member RAS oncogene family) #3 came out at: G2 robust z-score 0.966; G2 cells, % of GMNN control 9.76; inactive.
ADORA2B (adenosine A2b receptor) #1 scored G2 robust z-score 0.74; G2 cells, % of GMNN control 8.18; inactive.
Depletion of ADORA2B (adenosine A2b receptor) #2 gave: G2 robust z-score -0.756; G2 cells, % of GMNN control -2.35; inactive.
Against ADORA2B (adenosine A2b receptor) #3, the entry reads G2 robust z-score -0.125; G2 cells, % of GMNN control 2.09; inactive.
After knock-down of KIF6 (kinesin family member 6) #1, the record shows G2 robust z-score -0.551; G2 cells, % of GMNN control -0.912; inactive.
After knock-down of KIF6 (kinesin family member 6) #2 the results were G2 robust z-score -0.0441; G2 cells, % of GMNN control 2.66; inactive.
Against KIF6 (kinesin family member 6) #3, the values are G2 robust z-score 0.598; G2 cells, % of GMNN control 7.18; inactive.
Against SOAT1 (sterol O-acyltransferase 1) #1, the entry reads G2 robust z-score -0.783; G2 cells, % of GMNN control -2.54; inactive.
SOAT1 (sterol O-acyltransferase 1) #2 scored G2 robust z-score 0.0421; G2 cells, % of GMNN control 3.26; inactive.
After knock-down of SOAT1 (sterol O-acyltransferase 1) #3, the screen gave G2 robust z-score -0.224; G2 cells, % of GMNN control 1.39; inactive.
Knock-down of TAB2 (TGF-beta activated kinase 1 (MAP3K7) binding protein 2) #1 gave: G2 robust z-score -0.386; G2 cells, % of GMNN control 0.252; inactive.
Silencing of TAB2 (TGF-beta activated kinase 1 (MAP3K7) binding protein 2) #2 came out at: G2 robust z-score -1.07; G2 cells, % of GMNN control -4.54; inactive.
Depletion of TAB2 (TGF-beta activated kinase 1 (MAP3K7) binding protein 2) #3 came out at: G2 robust z-score 0.204; G2 cells, % of GMNN control 4.4; inactive.
CERKL (CERK like autophagy regulator) #1 gave G2 robust z-score 0.11; G2 cells, % of GMNN control 3.74; inactive.
CERKL (CERK like autophagy regulator) #2 gave G2 robust z-score 0.193; G2 cells, % of GMNN control 4.32; inactive.
With knock-down of CERKL (CERK like autophagy regulator) #3 the results were G2 robust z-score 3.13; G2 cells, % of GMNN control 25; inactive.
ACKR4 (atypical chemokine receptor 4) #1 gave G2 robust z-score 2.11; G2 cells, % of GMNN control 17.8; inactive.
After knock-down of ACKR4 (atypical chemokine receptor 4) #2, the record shows G2 robust z-score -0.0191; G2 cells, % of GMNN control 2.83; inactive.
ACKR4 (atypical chemokine receptor 4) #3 gave G2 robust z-score 2.5; G2 cells, % of GMNN control 20.5; inactive.
After knock-down of CHRNA5 (cholinergic receptor nicotinic alpha 5 subunit) #1, the record shows G2 robust z-score 0.151; G2 cells, % of GMNN control 4.03; inactive.
For CHRNA5 (cholinergic receptor nicotinic alpha 5 subunit) #2, the values are G2 robust z-score -0.284; G2 cells, % of GMNN control 0.971; inactive.
After knock-down of CHRNA5 (cholinergic receptor nicotinic alpha 5 subunit) #3, the screen gave G2 robust z-score -0.659; G2 cells, % of GMNN control -1.67; inactive.
Against EXO5 (exonuclease 5) #1, the values are G2 robust z-score -0.802; G2 cells, % of GMNN control -2.68; inactive.
EXO5 (exonuclease 5) #2 scored G2 robust z-score 0.109; G2 cells, % of GMNN control 3.74; inactive.
EXO5 (exonuclease 5) #3 scored G2 robust z-score -0.229; G2 cells, % of GMNN control 1.35; inactive.

Part of the list above, set out differently.
{"gene": "TAB2 (TGF-beta activated kinase 1 (MAP3K7) binding protein 2)", "reagent no.": 1, "G2 robust z-score": -0.386, "G2 cells, % of GMNN control": 0.252, "Call": "inactive"}
{"gene": "TAB2 (TGF-beta activated kinase 1 (MAP3K7) binding protein 2)", "reagent no.": 2, "G2 robust z-score": -1.07, "G2 cells, % of GMNN control": -4.54, "Call": "inactive"}
{"gene": "TAB2 (TGF-beta activated kinase 1 (MAP3K7) binding protein 2)", "reagent no.": 3, "G2 robust z-score": 0.204, "G2 cells, % of GMNN control": 4.4, "Call": "inactive"}
{"gene": "CERKL (CERK like autophagy regulator)", "reagent no.": 1, "G2 robust z-score": 0.11, "G2 cells, % of GMNN control": 3.74, "Call": "inactive"}
{"gene": "CERKL (CERK like autophagy regulator)", "reagent no.": 2, "G2 robust z-score": 0.193, "G2 cells, % of GMNN control": 4.32, "Call": "inactive"}
